Test results from patent publication US20250268941A1 (AUTOLUS, published 2025).
Results are given in words; binding and its absence hold for the method and conditions named. Some results given as binding are weak or reduced against the parent protein; the word gives no strength.

Amino acid sequences for entries named in this document (tags omitted). Residues count along the entry.
UniProt Q02223, residues 1-54: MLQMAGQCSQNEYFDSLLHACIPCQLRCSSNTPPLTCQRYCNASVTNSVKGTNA

Target: D8-41BB-ζ CAR (scFv format)
Assay: flow cytometry of primary human T cells transduced with D8-41BB-ζ (scFv), stained with recombinant BCMA-Fc plus anti-human Fc-AF647, against the RQR8 marker [a]

- binding: binds
Substance: recombinant BCMA-Fc (from UniProt Q02223 1-54) (Fc fusion)
